# Hit rate of the full screen: of about 410,000 compounds, about 2,000 (0.49%) were called active. Inconclusive results, whose numbers are uncertain, are shown with a selection of clear calls. The call rests on the fitted dose curve; tested in HEK293 reporter line. A potency beside an inconclusive call is a rough fit, not a confirmed value.
# Test: qHTS Assay for Foot and Mouth Disease Virus Antivirals: Primary Screen against the MLPCN compound library; further: nearly all actives have a fitted effect of over 55% in size
# Conditions: FMDV antiviral cell-based qHTS; series mostly up to 57.9 µM
# Potency means the concentration at half of the fitted maximal effect.
row,Compound,Potency
1,O=c1cc(-c2ccccc2)nc(Sc2ccc([N+](=O)[O-])cc2[N+](=O)[O-])[nH]1,"inconclusive: 15.8 µM [inhibitor, partial curve, poor fit]"
2,COc1cccc(-c2nc3ccccc3s2)c1,"inconclusive: 39.8 µM [inhibitor, single point]"
3,CCS(=O)(=O)c1ncc(Cl)c(C(=O)N2CCN(c3ccc(OC)cc3)CC2)n1,"inconclusive: 31.6 µM [inhibitor, partial curve, poor fit]"
4,C#CCOCCOCCOCCNc1nc(N2CCN(C(=O)CCCCCCCCCCNC(=O)Cn3cc(C[C@@H](C)O)nn3)CC2)nc(N2CCN(C(=O)CCCCCCCCCCNC(=O)[C@@H]([C@H](C)CC)n3cc(CCCCCN)nn3)CC2)n1,"inconclusive: 35.5 µM [inhibitor, single point]"
5,COc1ccc2oc3cc(C)[n+]([O-])c(-c4ccc(C)cc4)c3c2c1,"inconclusive: 25.1 µM [inhibitor, single point]"
6,CSc1ncccc1C(=O)NC1CCCc2c1cnn2-c1ccc(C)c(C)c1 (centres undefined),"inconclusive: 28.2 µM [inhibitor, partial curve, poor fit]"
7,Cc1nn(C(C)(C)C)c(C)c1/C=N/OC(=O)Nc1ccc(Cl)c(Cl)c1,"inconclusive: 0.316 µM [inhibitor, full curve, poor fit]"
8,COc1ccc(CCN2C(=O)CSC2=Nc2ccc(C(C)C)cc2)cc1OC,"inconclusive: 20 µM [inhibitor, partial curve, poor fit]"
9,CCc1ccc(/C=C2\SC(=S)N(CCCC(=O)Nc3cc(C)on3)C2=O)cc1,"inconclusive: 15.8 µM [inhibitor, partial curve, poor fit]"
10,CS(=O)(=O)N1CCc2cc(-c3csc(NC(=O)Cc4cccs4)n3)ccc21,"inconclusive: 12.6 µM [inhibitor, partial curve, poor fit]"
11,Cc1cc(N2CC(=O)N(CCc3ccccc3)C(=O)C2)n2ncnc2n1,"inconclusive: 31.6 µM [inhibitor, partial curve, poor fit]"
12,COc1ccc2c(c1)C1C=CCC1C(c1cc3c(cc1Br)OCO3)N2 (centres undefined),"inconclusive: 15.8 µM [inhibitor, single point]"
13,CCOc1ccc(C(C)=O)cc1CSC(=N)N,"inconclusive: 5.62 µM [inhibitor, partial curve]"
14,CC(C)(C)c1ccc(CSC2=Nc3ccccc3C3=NC(CC(=O)NCc4cccs4)C(=O)N23)cc1 (centres undefined),"inconclusive: 25.1 µM [inhibitor, partial curve, poor fit]"
15,c1ccc(COc2cccc(CN3CCN(c4ccccn4)CC3)c2)cc1,"inconclusive: 31.6 µM [inhibitor, single point]"
16,O=C(N/N=C/c1cc(Cl)cc([N+](=O)[O-])c1O)NC12CC3CC(CC(C3)C1)C2,"inconclusive: 22.4 µM [inhibitor, partial curve, poor fit]"
17,C#CCN(C[C@H]1[C@H](OC(=O)Nc2c(C)noc2C)[C@H](OC(=O)Nc2c(C)noc2C)C[C@@H](C(=O)OC)[C@H]1C(=O)OC)S(=O)(=O)c1ccc(C)cc1,"inconclusive: 31.6 µM [inhibitor, partial curve, poor fit]"

# Laid out differently: results already given
row	Compound	Potency
6	CSc1ncccc1C(=O)NC1CCCc2c1cnn2-c1ccc(C)c(C)c1 (centres undefined)	inconclusive: 28.2 µM [inhibitor, partial curve, poor fit]
8	COc1ccc(CCN2C(=O)CSC2=Nc2ccc(C(C)C)cc2)cc1OC	inconclusive: 20 µM [inhibitor, partial curve, poor fit]

# Further compounds follow:

row,Compound,Potency
1,CCCCCCOc1ccc(/C=C/C(=O)Nc2sc3c(c2C(=O)OC)CCC3)cc1OC,"inconclusive: 14.1 µM [inhibitor, partial curve, poor fit]"
2,COc1ccccc1OCCCn1cc(C=O)c2ccccc21,"inconclusive: 39.8 µM [inhibitor, single point]"
3,CC(C)(C)c1nn2cnnc2n(/N=C/c2cccc3ccccc23)c1=O,"inconclusive: 28.2 µM [inhibitor, partial curve, poor fit]"
4,COc1ccc(OC)c(C(=O)CC2OC(=O)c3ccccc32)c1 (centres undefined),"inconclusive: 14.1 µM [inhibitor, partial curve, poor fit]"
5,O=C(COC(=O)c1cc([N+](=O)[O-])ccc1N1CCOCC1)Nc1cccc(F)c1,"inconclusive: 39.8 µM [inhibitor, partial curve, poor fit]"
6,Cn1c(N)c(C(=O)COC(=O)c2ccc(C(F)(F)F)cc2)c(=O)n(C)c1=O,"inconclusive: 7.94 µM [inhibitor, partial curve, poor fit]"
7,COc1ccc(C(C)(O)c2nc(-c3ccncc3)cs2)cc1 (centres undefined),inactive
8,O=C(CN1CCN(C(=O)CCC(=O)N2CCC(c3ccccc3)=N2)CC1)Nc1ccc(F)cc1,"inconclusive: 11.2 µM [inhibitor, partial curve, poor fit]"
9,CC(=O)c1cccc(NC(=O)CN2C(=O)c3ccccc3Sc3ncccc32)c1,"inconclusive: 39.8 µM [inhibitor, partial curve, poor fit]"
10,CCCC(=O)N(C1CC(C)C(C#N)(C#N)C1(C#N)C#N)N(C)C (centres undefined),"inconclusive: 15.8 µM [inhibitor, partial curve, poor fit]"
11,COc1cc(C)cc(C(=O)C=Cc2ccccc2)c1O,"inconclusive: 31.6 µM [inhibitor, partial curve, poor fit]"
12,CN(c1ccc(OCC(=O)Nc2ccc(S(N)(=O)=O)cc2)cc1)S(=O)(=O)c1ccc(F)cc1,inactive
13,Cn1c(-c2cccc(OCc3ccccc3)c2)nc2c1c(=O)[nH]c(=O)n2Cc1ccccc1,"inconclusive: 35.5 µM [inhibitor, partial curve, poor fit]"
14,CC(O)(c1ccccc1)c1nc(-c2ccc(S(C)(=O)=O)cc2)cs1 (centres undefined),"inconclusive: 11.2 µM [inhibitor, partial curve]"
15,CC1(C)CC(=O)C2=C(C1)NC(SCC(=O)Nc1ccccc1)=C(C#N)C21CCCCC1,"inconclusive: 28.2 µM [inhibitor, partial curve, poor fit]"
16,CC1=NNC(=O)/C1=C\c1cn(-c2ccccc2)nc1-c1ccccc1,"inconclusive: 8.91 µM [inhibitor, partial curve, poor fit]"
17,CC(C)(C)OC(=O)N1CCC(c2c(C(=O)N3CCc4ccccc4C3)cnn2-c2ccc(Cl)cc2)CC1,"inconclusive: 11.2 µM [inhibitor, partial curve]"

# — PubChem BioAssay AID1347131 (National Center for Advancing Translational Sciences (NCATS), 2019)
